# PMC7812655
# By UniProt entry, the sequences of proteins in these tests, tags left out. Where a name states a change or a piece, a line headed by the entry shows the natural chain unless it says otherwise.
# UniProt P01106: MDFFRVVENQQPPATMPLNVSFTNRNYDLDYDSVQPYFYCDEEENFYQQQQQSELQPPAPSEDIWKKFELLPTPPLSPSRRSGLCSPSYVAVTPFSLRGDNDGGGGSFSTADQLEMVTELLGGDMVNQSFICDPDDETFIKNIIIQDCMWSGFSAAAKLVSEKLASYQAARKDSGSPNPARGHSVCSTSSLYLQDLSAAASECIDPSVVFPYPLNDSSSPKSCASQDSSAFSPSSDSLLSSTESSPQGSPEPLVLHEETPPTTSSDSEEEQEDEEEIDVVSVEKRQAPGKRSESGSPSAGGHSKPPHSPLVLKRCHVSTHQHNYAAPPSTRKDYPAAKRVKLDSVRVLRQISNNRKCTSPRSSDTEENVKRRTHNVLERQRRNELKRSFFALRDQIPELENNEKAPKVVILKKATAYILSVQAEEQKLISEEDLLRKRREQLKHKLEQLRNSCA
# These are yes or no findings as the source states them, for the method shown. In cells and extracts the contact can be indirect. A result given as binding can be weak or reduced; the word gives no strength. Where a sequence is shown, tags or fusion partners need not be part of it.
# Target: T1, EGFP-tagged IKKα (UniProt O15111)
# T1 sequence: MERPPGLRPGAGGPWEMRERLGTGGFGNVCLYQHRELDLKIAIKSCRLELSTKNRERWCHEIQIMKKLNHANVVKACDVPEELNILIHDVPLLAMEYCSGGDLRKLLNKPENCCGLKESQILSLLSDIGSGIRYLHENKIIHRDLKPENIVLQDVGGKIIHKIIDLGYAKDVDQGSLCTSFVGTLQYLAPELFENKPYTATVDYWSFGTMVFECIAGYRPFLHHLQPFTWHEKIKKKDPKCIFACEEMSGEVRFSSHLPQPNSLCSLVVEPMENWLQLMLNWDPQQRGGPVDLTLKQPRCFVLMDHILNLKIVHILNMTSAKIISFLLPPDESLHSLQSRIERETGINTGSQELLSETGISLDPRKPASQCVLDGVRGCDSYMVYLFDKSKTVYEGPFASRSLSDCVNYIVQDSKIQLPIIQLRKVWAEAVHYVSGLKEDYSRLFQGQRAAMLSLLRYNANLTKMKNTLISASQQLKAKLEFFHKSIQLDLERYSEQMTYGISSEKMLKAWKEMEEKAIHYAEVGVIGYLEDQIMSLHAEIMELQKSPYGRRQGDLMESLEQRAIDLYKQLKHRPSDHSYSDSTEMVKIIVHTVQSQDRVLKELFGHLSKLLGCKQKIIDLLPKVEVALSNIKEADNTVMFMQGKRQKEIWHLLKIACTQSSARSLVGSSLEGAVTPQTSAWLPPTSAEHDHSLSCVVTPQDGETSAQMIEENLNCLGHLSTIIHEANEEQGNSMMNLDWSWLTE
# Test: FRET or BRET; 3-filter FRET microscopy in transfected HEK-293 cells; donor EGFP-tagged IKKα or IKKβ, acceptor red-fluorescent-protein tagged c-Myc; corrected and normalized FRET images (Figure S1, as described in ref. 27)
substance,measurement,value
red-fluorescent-protein tagged c-Myc (from UniProt P01106),binding,binds
